No constants are given. Whether binding was seen depends on the method and setting. In cells and extracts the contact can be indirect. Some entries that bind do so weakly or less than the wild type. Tags and fused reporters may be left off the sequences shown.

This passage reports binding results from publication PMC6172191.

In one assay the target is GST-copine-III (human) (UniProt O75131). As to the kind of experiment: pull-down; GST-copine-III (or GST as control) on glutathione beads with lysates of HEK293 cells transfected with FLAG-EMP1; western blotting; only the target purified.
Assay [1] addresses T1, EMP1 intracellular loop peptide (…) (human).
T1 sequence (peptide): FTMEKGNRF
The assay can be described thus: pull-down; peptide-bound Sepharose beads or control beads with lysates of HEK293 cells transfected with EGFP-copine-III constructs; western blotting; only the target purified. (A western blot detects proteins with antibodies after separation by electrophoresis.)

B1: FLAG-EMP1 (protein, UniProt P54849 1-157)
chain: MLVLLAGIFVVHIATVIMLFVSTIANVWLVSNTVDASVGLWKNCTNISCSDSLSYASEDALKTVQAFMILSIIFCVIALLVFVFQLFTMEKGNRFFLSGATTLVCWLCILVGVSIYTSHYANRDGTQYHHGYSYILGWICFCFSFIIGVLYLVLRKK
modifications: glycosylated (site not stated)
Turning to B1, in the assay with GST-copine-III (human), the binding result is given as “binds”.

B2: EGFP-copine-III-ΔC2-1 (domain or fragment, UniProt O75131 139-515)
chain: RVVLFEMEARKLDNKDLFGKSDPYLEFHKQTSDGNWLMVHRTEVVKNNLNPVWRPFKISLNSLCYGDMDKTIKVECYDYDNDGSHDLIGTFQTTMTKLKEASRSSPVEFECINEKKRQKKKSYKNSGVISVKQCEITVECTFLDYIMGGCQLNFTVGVDFTGSNGDPRSPDSLHYISPNGVNEYLTALWSVGLVIQDYDADKMFPAFGFGAQIPPQWQVSHEFPMNFNPSNPYCNGIQGIVEAYRSCLPQIKLYGPTNFSPIINHVARFAAAATQQQTASQYFVLLIITDGVITDLDETRQAIVNASRLPMSIIIVGVGGADFSAMEFLDGDGGSLRSPLGEVAIRDIVQFVPFRQFQNAPKEALAQCVLAEIPQQV
For the molecule B2, the binding entry in assay [1] is “binds”.

B3: EGFP-copine-III-ΔC2-2 (domain or fragment, UniProt O75131)
chain: TKVALNVSCANLLDKDIGSKSDPLCVLFLNTSGQQWYEVERTERIKNCLNPQFSKTFIIDYYFEVVQKLKFGVYDIDNKTIELSDDDFLGECECTLGQIVSSKKLTRPLVMKTGRPAGKNSGVISVKQCEITVECTFLDYIMGGCQLNFTVGVDFTGSNGDPRSPDSLHYISPNGVNEYLTALWSVGLVIQDYDADKMFPAFGFGAQIPPQWQVSHEFPMNFNPSNPYCNGIQGIVEAYRSCLPQIKLYGPTNFSPIINHVARFAAAATQQQTASQYFVLLIITDGVITDLDETRQAIVNASRLPMSIIIVGVGGADFSAMEFLDGDGGSLRSPLGEVAIRDIVQFVPFRQFQNAPKEALAQCVLAEIPQQV
Consider B3, for which the binding result in assay [1] was “no binding”.

B4: EGFP-copine-III-ΔVWA (domain or fragment, UniProt O75131 7-251)
chain: TKVALNVSCANLLDKDIGSKSDPLCVLFLNTSGQQWYEVERTERIKNCLNPQFSKTFIIDYYFEVVQKLKFGVYDIDNKTIELSDDDFLGECECTLGQIVSSKKLTRPLVMKTGRPAGKGSITISAEEIKDNRVVLFEMEARKLDNKDLFGKSDPYLEFHKQTSDGNWLMVHRTEVVKNNLNPVWRPFKISLNSLCYGDMDKTIKVECYDYDNDGSHDLIGTFQTTMTKLKEASRSSPVEFECIN
With B4, the binding result in assay [1] is on record as “no binding”.
